PubChem BioAssay AID1671195, Yale University | 2021
The whole screen tested about 22,000 reagents; this is an unselected part. In the full data, about 1,510 (6.9%) were called active. 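Active includes knockdowns raising or lowering LDL uptake; positive z-scores mean more uptake, negative mean less.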 Entries without a mark were called inactive. The numbers tell different reagents against one gene apart. No sequences are given here.

- Test: 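Knockdowns that increase or decrease uptake of fluorescent LDL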 (primary screen)
- System: human Huh7 hepatoma cells
- Knock-down reagent: siRNA pool against human genes, 18 nM
- Time to read-out: about 2 to 2.5 days of knockdown, then 8 h LDL uptake
- Treatment: DiI-labelled LDL at 30 µg/ml for 8 h, in lipoprotein-deficient serum medium
- Detection: 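Per-cell DiI-LDL intensity by automated imaging; well means scaled to the plate median and given as a robust z-score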
- Scale: robust z-score: higher = more LDL uptake after knockdown
- Call rule: 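Active when two or more replicates show a robust z-score above 2 or below -2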

gene symbol	reagent no.	robust z-score, replicate 1	robust z-score, replicate 2	robust z-score, replicate 3
LOC389172 (retired record)	1	2.39	1.62	0.91
MYLK4	1	-0.393	-0.356	-0.161
PKD2L2	1	1.89	2.27	1.77
FANCI	1	-0.998	-0.107	0.302
CYTL1	1	-0.0408	0.265	0.499
ZKSCAN8P2	1	-0.853	-0.783	-0.984
ARPC3	1	0.288	0.158	0.294
KCNJ8	1	-0.0264	-0.313	0.527
SMC4	1	-2.03 (active)	-1.99	-1.47
MARCO	1	0.395	0.479	-0.173
POTEC	1	1.16	1.14	0.924
HSPA12B	1	-0.665	1.58	0.811
GRHL3	1	-0.118	-1.01	-0.206
PDZD2	1	-1.88	-1.22	-1.67
LOC441991 (retired record)	1	-0.427	-0.147	-0.106
OR1J4	1	0.505	-0.0184	-1.33
PSMG3-AS1	1	0.0616	-1.59	-1
SPIDR	1	1.63	1.4	2.91
TKTL2	1	0.548	0.0277	0.0758
RPL8	1	-1.49	-0.676	-1.46
PIGY	1	-0.29	-0.0581	-0.594
SDHAF4	1	-1.46	-0.398	-0.335
ICE2	1	-1.96	-1.64	-1.71
NIPSNAP3B	1	-0.961	-1.22	-0.76
ZNF385A	1	0.57	0.0557	0.42
LOC440827 (retired record)	1	0.33	0.672	-0.208
MYL12BP2	1	2.1	-0.0138	0.975
LOC391092	1	0.864	0.804	0.915
NBPF13P	1	-0.334	-0.45	-0.204
DLG5	1	-0.148	-0.171	-0.27
ADCY3	1	1.08	0.62	1.59
GRK7	1	0.528	0.293	0.834
CKLF	1	1.15	2.16	1.81
CD38	1	1.63	0.207	1.2
CCNB1IP1	1	0.927	1.23	1.42
TFPI	1	-2.4 (active)	-1.66	-2
SPRR1A	1	-2.19	-1.09	-1.57
ADCY7	1	-0.391	-0.135	-0.713
RPGRIP1	1	1.06	0.0209	0.0149
MYH1	1	0.121	-0.38	0.0457
TLN1	1	0.123	0.582	1.12
CT47A11	1	-0.634	-0.7	-0.658
LOC441928 (retired record)	1	-0.236	-0.0563	-0.231
GARIN6	1	-1.24	-1.24	0.103
CLN8	1	-1.09	-0.357	-0.354
CLN8	2	-1.53	-0.891	-1.09

A few values from the list.
DLG5, robust z-score, replicate 2 = -0.171
Under “robust z-score, replicate 3”, LOC441991 (retired record) reads -0.106
TLN1, robust z-score, replicate 3 = 1.12
Under “robust z-score, replicate 3”, CYTL1 has 0.499
